Experimental data: PubChem BioAssay AID602196 (INSERM, 2012)
Test: 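Modifiers of cisplatin sensitivity in A549 cells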. System: human A549 lung cancer cells. Knock-down reagent: siRNA pair against human genes. Timing: 48 h transfection before cisplatin; time from cisplatin to read-out not stated. Conditions: cisplatin at a dose killing half of control-siRNA cells; exact dose and duration not given. Read-out: 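Cisplatin cell death as a shift from the 50% death seen with control siRNA; siRNAs toxic or growth-blocking alone scored 0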. Scale: two-siRNA summed score (-2 to +2): higher = both siRNAs protect from cisplatin killing; -2 means both sensitise; mean protection from cisplatin (shift in death): higher = protection from cisplatin killing. Call rule: 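Each siRNA scores 0 if harmful alone by LDH or WST-1, otherwise +1 if it reduces and -1 if it increases cisplatin killing; a gene is active when both siRNAs agree (sum +2 or -2)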. Meaning of the calls: active = both siRNAs shift cisplatin killing the same way; inactive = no consistent shift, or siRNA harmful alone.
Shown is a random part of about 23,000 reagents tested. 455 of them (2%) count as active. 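Active includes both protection and sensitisation; some change values fall well beyond the stated -50 to +50 range.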 A number with no mark means an inactive call. Not all columns of the deposit are shown. The record does not give: the amount of reagent.

After knock-down of ELAC2 [SID131505100], the record shows two-siRNA summed score (-2 to +2) = 0; mean protection from cisplatin (shift in death) (%) = -3.8.
With knock-down of ZBTB14 [SID131511949] the results were two-siRNA summed score (-2 to +2) = 0; mean protection from cisplatin (shift in death) (%) = 4.9.
After knock-down of TIMM17BP1 [SID131506989], the screen gave two-siRNA summed score (-2 to +2) = 0; mean protection from cisplatin (shift in death) (%) = -0.7.
Against WWC3 [SID131507722], the values are two-siRNA summed score (-2 to +2) = 0; mean protection from cisplatin (shift in death) (%) = 0.2.
After knock-down of PIGY [SID131516977] the results were two-siRNA summed score (-2 to +2) = 0; mean protection from cisplatin (shift in death) (%) = 12.1.
Depletion of KLHDC3 [SID131510335] resulted in: two-siRNA summed score (-2 to +2) = 0; mean protection from cisplatin (shift in death) (%) = 3.1.
Knock-down of PITPNM3 [SID131509536] came out at: two-siRNA summed score (-2 to +2) = 0; mean protection from cisplatin (shift in death) (%) = 2.2.
CADM1 [SID131521863] scored two-siRNA summed score (-2 to +2) = 1; mean protection from cisplatin (shift in death) (%) = 15.2.
With knock-down of AZU1 [SID131519261], the screen gave two-siRNA summed score (-2 to +2) = 1; mean protection from cisplatin (shift in death) (%) = 4.2.
For LOC401082 [SID131513980], the entry reads two-siRNA summed score (-2 to +2) = 0; mean protection from cisplatin (shift in death) (%) = 7.2.
ANKHD1 [SID131512813] showed two-siRNA summed score (-2 to +2) = 0; mean protection from cisplatin (shift in death) (%) = 5.9.
Knock-down of LRRC30 [SID131506067] resulted in: two-siRNA summed score (-2 to +2) = 0; mean protection from cisplatin (shift in death) (%) = -2.1.
With knock-down of GPR151 [SID131512023], the screen gave two-siRNA summed score (-2 to +2) = 0; mean protection from cisplatin (shift in death) (%) = 5.
TM4SF5 [SID131502232] gave two-siRNA summed score (-2 to +2) = -1; mean protection from cisplatin (shift in death) (%) = -4.1.
Against PDK3 [SID131515495], the entry reads two-siRNA summed score (-2 to +2) = 0; mean protection from cisplatin (shift in death) (%) = 9.3.
For THAP1 [SID131521895] the deposit lists two-siRNA summed score (-2 to +2) = 1; mean protection from cisplatin (shift in death) (%) = 15.3.
SCGB2A2 [SID131522561] gave two-siRNA summed score (-2 to +2) = 1; mean protection from cisplatin (shift in death) (%) = 20.
With knock-down of FLJ39824 [SID131514641], the record shows two-siRNA summed score (-2 to +2) = 0; mean protection from cisplatin (shift in death) (%) = 8.1.
KICS2 [SID131509924] gave two-siRNA summed score (-2 to +2) = 0; mean protection from cisplatin (shift in death) (%) = 2.7.
Depletion of ZNF106 [SID131510084] came out at: two-siRNA summed score (-2 to +2) = 0; mean protection from cisplatin (shift in death) (%) = 2.9.
H4C13 [SID131505841] scored two-siRNA summed score (-2 to +2) = 0; mean protection from cisplatin (shift in death) (%) = -2.5.

A stretch taken from the entries so far, for reference:
THAP1 [SID131521895] → two-siRNA summed score (-2 to +2) = 1; mean protection from cisplatin (shift in death) (%) = 15.3
SCGB2A2 [SID131522561] → two-siRNA summed score (-2 to +2) = 1; mean protection from cisplatin (shift in death) (%) = 20
FLJ39824 [SID131514641] → two-siRNA summed score (-2 to +2) = 0; mean protection from cisplatin (shift in death) (%) = 8.1
KICS2 [SID131509924] → two-siRNA summed score (-2 to +2) = 0; mean protection from cisplatin (shift in death) (%) = 2.7
